# Data as given in publication PMC8072408.
# These are yes or no findings as the source states them, for the method shown. For some of these results: Binding seen in cells or lysates may run through a third protein. Some results given as binding are weak or reduced against the parent protein; the word gives no strength. For some of these results: Where a sequence is shown, tags or fusion partners need not be part of it.
# T1: 3XFLAG-TMEM41B (UniProt Q5BJD5)
# T1 sequence: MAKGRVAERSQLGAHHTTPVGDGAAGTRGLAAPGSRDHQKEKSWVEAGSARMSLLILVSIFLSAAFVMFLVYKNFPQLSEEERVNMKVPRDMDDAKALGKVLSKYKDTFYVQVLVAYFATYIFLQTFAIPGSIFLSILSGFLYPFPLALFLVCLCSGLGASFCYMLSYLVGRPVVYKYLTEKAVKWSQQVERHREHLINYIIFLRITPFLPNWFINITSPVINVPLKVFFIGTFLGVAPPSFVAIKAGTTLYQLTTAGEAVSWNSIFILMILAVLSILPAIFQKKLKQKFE
# T2: 3XFLAG-VMP1 (UniProt Q96GC9)
# T2 sequence: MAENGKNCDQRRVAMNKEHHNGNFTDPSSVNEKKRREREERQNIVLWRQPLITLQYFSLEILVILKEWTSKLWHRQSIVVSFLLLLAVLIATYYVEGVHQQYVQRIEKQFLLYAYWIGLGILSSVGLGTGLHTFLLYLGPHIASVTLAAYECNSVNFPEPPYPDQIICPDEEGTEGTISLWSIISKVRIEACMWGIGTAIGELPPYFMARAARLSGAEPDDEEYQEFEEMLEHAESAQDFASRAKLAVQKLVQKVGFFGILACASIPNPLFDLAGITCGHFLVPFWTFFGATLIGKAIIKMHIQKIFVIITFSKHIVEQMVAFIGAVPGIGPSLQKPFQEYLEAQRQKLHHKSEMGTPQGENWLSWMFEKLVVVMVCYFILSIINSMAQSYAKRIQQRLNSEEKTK
# T3: TMEM41B/VMP1 (1:1 mixture reconstituted together into liposomes) (UniProt Q5BJD5)
# T3 sequence 1: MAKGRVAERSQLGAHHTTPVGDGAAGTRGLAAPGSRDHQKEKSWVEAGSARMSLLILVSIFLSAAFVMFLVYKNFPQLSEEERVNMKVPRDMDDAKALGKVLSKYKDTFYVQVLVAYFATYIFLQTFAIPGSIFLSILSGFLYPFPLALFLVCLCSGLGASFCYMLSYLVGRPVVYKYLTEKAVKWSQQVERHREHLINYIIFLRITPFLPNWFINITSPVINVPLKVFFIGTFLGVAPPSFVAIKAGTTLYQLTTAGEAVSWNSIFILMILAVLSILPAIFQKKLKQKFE
# T3 sequence 2: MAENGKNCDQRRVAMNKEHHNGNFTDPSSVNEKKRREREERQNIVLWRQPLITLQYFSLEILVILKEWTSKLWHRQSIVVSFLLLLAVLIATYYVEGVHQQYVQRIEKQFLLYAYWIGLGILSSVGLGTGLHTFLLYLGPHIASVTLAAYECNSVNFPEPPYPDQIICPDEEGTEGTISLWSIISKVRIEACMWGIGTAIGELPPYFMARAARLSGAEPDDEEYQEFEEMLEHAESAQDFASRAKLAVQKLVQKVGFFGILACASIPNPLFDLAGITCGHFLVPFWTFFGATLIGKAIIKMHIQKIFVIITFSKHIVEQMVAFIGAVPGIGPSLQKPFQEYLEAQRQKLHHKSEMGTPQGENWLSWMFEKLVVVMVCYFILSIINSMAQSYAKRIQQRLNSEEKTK
# Columns and labels:
# 3XFLAG-TMEM41B [1] = molecular target: T1, 3XFLAG-TMEM41B; experiment: pull-down; lysate of Expi293F cells overexpressing ATG2A passed over 3XFLAG-TMEM41B or 3XFLAG-VMP1 immobilized on anti-FLAG resin; only the target purified
# 3XFLAG-VMP1 [2] = molecular target: T2, 3XFLAG-VMP1; experiment: as above
# 3XFLAG-TMEM41B [3] = molecular target: T1, 3XFLAG-TMEM41B; experiment: liposome flotation (density gradient centrifugation); mini-ATG2A incubated with protein-free liposomes or liposomes reconstituted with ATG9A, TMEM41B, VMP1 or TMEM41B/VMP1; liposomes and associated mini-ATG2A separated from unbound protein by density gradient centrifugation; both purified
# [4] = molecular target: T3, TMEM41B/VMP1 (1:1 mixture reconstituted together into liposomes); experiment: as above
# 3XFLAG-VMP1 [5] = molecular target: T2, 3XFLAG-VMP1; experiment: as above
# 3XFLAG-TMEM41B [6] = molecular target: T1, 3XFLAG-TMEM41B; experiment: pull-down; mini-ATG2A in interaction experiments similar to the ones described for the full-length protein (3XFLAG-tagged ATG9A, TMEM41B or VMP1 as bait)
# 3XFLAG-VMP1 [7] = molecular target: T2, 3XFLAG-VMP1; experiment: as above
binding (3XFLAG-TMEM41B [1]),binding (3XFLAG-VMP1 [2]),binding (3XFLAG-TMEM41B [3]),binding [4],binding (3XFLAG-VMP1 [5]),binding (3XFLAG-TMEM41B [6]),binding (3XFLAG-VMP1 [7]),Molecule
binds,binds,,,,,,"ATG2A (untagged, full-length) (from UniProt Q2TAZ0 1-1938)"
,,binds,binds,binds,binds,binds,"mini-ATG2A (residues 1 to 345) (domain or fragment, UniProt Q2TAZ0 1-345) MSRWLWPWSNCVKERVCRYLLHHYLGHFFQEHLSLDQLSLDLYKGSVALRDIHLEIWSVNEVLESMESPLELVEGFVGSIEVAVPWAALLTDHCTVRVSGLQLTLQPRRGPAPGAADSQSWASCMTTSLQLAQECLRDGLPEPSEPPQPLEGLEMFAQTIETVLRRIKVTFLDTVVRVEHSPGDGERGVAVEVRVQRLEYCDEAVRDPSQAPPVDVHQPPAFLHKLLQLAGVRLHYEELPAQEEPPEPPLQIGSCSGYMELMVKLKQNEAFPGPKLEVAGQLGSLHLLLTPRQLQQLQELLSAVSLTDHEGLADKLNKSRPLGAEDLWLIEQDLNQQLQAGAVAE"
